1 molecule from doi:10.1101/2023.09.13.557610 can be followed below.

Where two headings read alike, the source gives them in different places. These are yes or no findings as the source states them, for the method shown. Binding seen in cells or lysates may run through a third protein. These calls come from enrichment with a bait or labelling near it, and not all partners need be listed. Sequences can lack the tags named with a protein.

Experiment [1] has as its target SPCA2C-BirA*HA (mouse). The experiment in a line: proximity labelling.
The target in experiment [2] is SPCA2C-BirA*HA (mouse). In words: proximity labelling. The source holds these as a separate data set.

B1: extended synaptotagmin-1 (ESYT1), endogenous (protein, UniProt Q9BSJ8 1-1104)
chain: MERSPGEGPSPSPMDQPSAPSDPTDQPPAAHAKPDPGSGGQPAGPGAAGEALAVLTSFGRRLLVLIPVYLAGAVGLSVGFVLFGLALYLGWRRVRDEKERSLRAARQLLDDEEQLTAKTLYMSHRELPAWVSFPDVEKAEWLNKIVAQVWPFLGQYMEKLLAETVAPAVRGSNPHLQTFTFTRVELGEKPLRIIGVKVHPGQRKEQILLDLNISYVGDVQIDVEVKKYFCKAGVKGMQLHGVLRVILEPLIGDLPFVGAVSMFFIRRPTLDINWTGMTNLLDIPGLSSLSDTMIMDSIAAFLVLPNRLLVPLVPDLQDVAQLRSPLPRGIIRIHLLAARGLSSKDKYVKGLIEGKSDPYALVRLGTQTFCSRVIDEELNPQWGETYEVMVHEVPGQEIEVEVFDKDPDKDDFLGRMKLDVGKVLQASVLDDWFPLQGGQGQVHLRLEWLSLLSDAEKLEQVLQWNWGVSSRPDPPSAAILVVYLDRAQDLPLKKGNKEPNPMVQLSIQDVTQESKAVYSTNCPVWEEAFRFFLQDPQSQELDVQVKDDSRALTLGALTLPLARLLTAPELILDQWFQLSSSGPNSRLYMKLVMRILYLDSSEICFPTVPGCPGAWDVDSENPQRGSSVDAPPRPCHTTPDSQFGTEHVLRIHVLEAQDLIAKDRFLGGLVKGKSDPYVKLKLAGRSFRSHVVREDLNPRWNEVFEVIVTSVPGQELEVEVFDKDLDKDDFLGRCKVRLTTVLNSGFLDEWLTLEDVPSGRLHLRLERLTPRPTAAELEEVLQVNSLIQTQKSAELAAALLSIYMERAEDLPLRKGTKHLSPYATLTVGDSSHKTKTISQTSAPVWDESASFLIRKPHTESLELQVRGEGTGVLGSLSLPLSELLVADQLCLDRWFTLSSGQGQVLLRAQLGILVSQHSGVEAHSHSYSHSSSSLSEEPELSGGPPHITSSAPELRQRLTHVDSPLEAPAGPLGQVKLTLWYYSEERKLVSIVHGCRSLRQNGRDPPDPYVSLLLLPDKNRGTKRRTSQKKRTLSPEFNERFEWELPLDEAQRRKLDVSVKSNSSFMSRERELLGKVQLDLAETDLSQGVARWYDLMDNKDKGSS
B1: the binding entry with SPCA2C-BirA*HA (mouse) [1] and with SPCA2C-BirA*HA (mouse) [2] was “binds” throughout.
